In paper PMC7367195:
Results are given in words; binding and its absence hold for the method and conditions named. Binding seen in cells or lysates may run through a third protein. These calls come from enrichment with a bait or labelling near it, and not all partners need be listed.

Sequences of proteins named here, by UniProt entry; tags and fusion partners are left off.
UniProt Q8R418: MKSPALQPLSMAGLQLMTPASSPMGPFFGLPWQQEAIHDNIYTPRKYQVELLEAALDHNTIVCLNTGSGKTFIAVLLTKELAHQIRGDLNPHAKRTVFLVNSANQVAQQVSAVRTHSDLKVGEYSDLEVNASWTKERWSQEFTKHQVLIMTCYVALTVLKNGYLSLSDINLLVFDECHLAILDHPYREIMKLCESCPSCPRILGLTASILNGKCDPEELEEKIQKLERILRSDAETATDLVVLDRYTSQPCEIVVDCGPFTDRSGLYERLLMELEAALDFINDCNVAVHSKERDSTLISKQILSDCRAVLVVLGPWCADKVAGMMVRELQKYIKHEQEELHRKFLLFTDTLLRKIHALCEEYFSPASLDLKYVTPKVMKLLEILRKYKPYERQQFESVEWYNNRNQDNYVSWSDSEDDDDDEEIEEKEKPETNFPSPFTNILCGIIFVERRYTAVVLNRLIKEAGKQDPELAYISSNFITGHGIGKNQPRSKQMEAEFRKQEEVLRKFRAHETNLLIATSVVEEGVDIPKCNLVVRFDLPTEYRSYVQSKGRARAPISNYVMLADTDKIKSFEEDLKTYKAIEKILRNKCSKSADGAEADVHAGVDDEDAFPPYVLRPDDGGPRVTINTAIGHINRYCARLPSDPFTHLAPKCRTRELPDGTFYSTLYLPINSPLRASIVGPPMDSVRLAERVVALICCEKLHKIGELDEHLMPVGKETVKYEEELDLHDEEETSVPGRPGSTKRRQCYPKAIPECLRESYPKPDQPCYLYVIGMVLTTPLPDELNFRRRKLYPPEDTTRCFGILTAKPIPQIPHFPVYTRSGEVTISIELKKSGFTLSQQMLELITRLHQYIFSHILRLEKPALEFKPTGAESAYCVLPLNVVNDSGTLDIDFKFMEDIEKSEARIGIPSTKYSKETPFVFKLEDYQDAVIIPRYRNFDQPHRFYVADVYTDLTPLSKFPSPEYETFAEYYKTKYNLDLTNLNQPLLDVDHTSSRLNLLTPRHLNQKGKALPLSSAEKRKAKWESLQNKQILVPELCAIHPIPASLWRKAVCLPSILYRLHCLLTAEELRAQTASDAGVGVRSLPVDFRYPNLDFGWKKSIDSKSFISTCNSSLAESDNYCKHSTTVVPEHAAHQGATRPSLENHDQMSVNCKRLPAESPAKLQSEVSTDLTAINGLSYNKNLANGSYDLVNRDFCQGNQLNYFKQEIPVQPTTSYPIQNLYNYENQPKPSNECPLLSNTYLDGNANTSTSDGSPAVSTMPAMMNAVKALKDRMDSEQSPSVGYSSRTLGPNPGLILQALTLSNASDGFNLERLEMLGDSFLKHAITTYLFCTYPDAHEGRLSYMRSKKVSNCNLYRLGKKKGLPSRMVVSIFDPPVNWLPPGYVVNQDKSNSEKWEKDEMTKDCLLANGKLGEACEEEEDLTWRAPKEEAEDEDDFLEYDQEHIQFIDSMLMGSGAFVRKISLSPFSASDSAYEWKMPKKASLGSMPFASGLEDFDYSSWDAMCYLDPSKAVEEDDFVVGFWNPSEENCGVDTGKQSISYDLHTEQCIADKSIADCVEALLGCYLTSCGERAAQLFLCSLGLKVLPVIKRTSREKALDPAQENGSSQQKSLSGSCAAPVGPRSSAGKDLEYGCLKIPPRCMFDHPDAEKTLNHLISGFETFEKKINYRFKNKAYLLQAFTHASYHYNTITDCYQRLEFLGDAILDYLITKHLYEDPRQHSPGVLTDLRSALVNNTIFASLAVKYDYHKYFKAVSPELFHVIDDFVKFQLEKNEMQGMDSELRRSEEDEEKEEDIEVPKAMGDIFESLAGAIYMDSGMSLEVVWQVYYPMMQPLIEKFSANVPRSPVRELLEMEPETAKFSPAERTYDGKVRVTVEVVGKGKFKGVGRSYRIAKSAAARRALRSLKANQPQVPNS
UniProt Q60749: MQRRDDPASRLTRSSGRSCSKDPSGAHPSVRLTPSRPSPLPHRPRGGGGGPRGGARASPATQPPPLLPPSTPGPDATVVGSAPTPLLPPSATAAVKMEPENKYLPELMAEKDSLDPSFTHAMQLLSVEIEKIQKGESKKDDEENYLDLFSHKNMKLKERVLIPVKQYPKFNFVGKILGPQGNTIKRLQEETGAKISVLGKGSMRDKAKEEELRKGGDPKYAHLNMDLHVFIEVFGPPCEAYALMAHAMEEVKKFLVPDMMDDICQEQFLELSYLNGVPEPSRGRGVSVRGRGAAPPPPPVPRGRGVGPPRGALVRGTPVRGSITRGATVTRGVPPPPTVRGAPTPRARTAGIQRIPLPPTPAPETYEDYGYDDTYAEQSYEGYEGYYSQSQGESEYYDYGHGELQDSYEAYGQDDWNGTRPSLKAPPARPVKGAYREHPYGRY
UniProt Q6P4T2: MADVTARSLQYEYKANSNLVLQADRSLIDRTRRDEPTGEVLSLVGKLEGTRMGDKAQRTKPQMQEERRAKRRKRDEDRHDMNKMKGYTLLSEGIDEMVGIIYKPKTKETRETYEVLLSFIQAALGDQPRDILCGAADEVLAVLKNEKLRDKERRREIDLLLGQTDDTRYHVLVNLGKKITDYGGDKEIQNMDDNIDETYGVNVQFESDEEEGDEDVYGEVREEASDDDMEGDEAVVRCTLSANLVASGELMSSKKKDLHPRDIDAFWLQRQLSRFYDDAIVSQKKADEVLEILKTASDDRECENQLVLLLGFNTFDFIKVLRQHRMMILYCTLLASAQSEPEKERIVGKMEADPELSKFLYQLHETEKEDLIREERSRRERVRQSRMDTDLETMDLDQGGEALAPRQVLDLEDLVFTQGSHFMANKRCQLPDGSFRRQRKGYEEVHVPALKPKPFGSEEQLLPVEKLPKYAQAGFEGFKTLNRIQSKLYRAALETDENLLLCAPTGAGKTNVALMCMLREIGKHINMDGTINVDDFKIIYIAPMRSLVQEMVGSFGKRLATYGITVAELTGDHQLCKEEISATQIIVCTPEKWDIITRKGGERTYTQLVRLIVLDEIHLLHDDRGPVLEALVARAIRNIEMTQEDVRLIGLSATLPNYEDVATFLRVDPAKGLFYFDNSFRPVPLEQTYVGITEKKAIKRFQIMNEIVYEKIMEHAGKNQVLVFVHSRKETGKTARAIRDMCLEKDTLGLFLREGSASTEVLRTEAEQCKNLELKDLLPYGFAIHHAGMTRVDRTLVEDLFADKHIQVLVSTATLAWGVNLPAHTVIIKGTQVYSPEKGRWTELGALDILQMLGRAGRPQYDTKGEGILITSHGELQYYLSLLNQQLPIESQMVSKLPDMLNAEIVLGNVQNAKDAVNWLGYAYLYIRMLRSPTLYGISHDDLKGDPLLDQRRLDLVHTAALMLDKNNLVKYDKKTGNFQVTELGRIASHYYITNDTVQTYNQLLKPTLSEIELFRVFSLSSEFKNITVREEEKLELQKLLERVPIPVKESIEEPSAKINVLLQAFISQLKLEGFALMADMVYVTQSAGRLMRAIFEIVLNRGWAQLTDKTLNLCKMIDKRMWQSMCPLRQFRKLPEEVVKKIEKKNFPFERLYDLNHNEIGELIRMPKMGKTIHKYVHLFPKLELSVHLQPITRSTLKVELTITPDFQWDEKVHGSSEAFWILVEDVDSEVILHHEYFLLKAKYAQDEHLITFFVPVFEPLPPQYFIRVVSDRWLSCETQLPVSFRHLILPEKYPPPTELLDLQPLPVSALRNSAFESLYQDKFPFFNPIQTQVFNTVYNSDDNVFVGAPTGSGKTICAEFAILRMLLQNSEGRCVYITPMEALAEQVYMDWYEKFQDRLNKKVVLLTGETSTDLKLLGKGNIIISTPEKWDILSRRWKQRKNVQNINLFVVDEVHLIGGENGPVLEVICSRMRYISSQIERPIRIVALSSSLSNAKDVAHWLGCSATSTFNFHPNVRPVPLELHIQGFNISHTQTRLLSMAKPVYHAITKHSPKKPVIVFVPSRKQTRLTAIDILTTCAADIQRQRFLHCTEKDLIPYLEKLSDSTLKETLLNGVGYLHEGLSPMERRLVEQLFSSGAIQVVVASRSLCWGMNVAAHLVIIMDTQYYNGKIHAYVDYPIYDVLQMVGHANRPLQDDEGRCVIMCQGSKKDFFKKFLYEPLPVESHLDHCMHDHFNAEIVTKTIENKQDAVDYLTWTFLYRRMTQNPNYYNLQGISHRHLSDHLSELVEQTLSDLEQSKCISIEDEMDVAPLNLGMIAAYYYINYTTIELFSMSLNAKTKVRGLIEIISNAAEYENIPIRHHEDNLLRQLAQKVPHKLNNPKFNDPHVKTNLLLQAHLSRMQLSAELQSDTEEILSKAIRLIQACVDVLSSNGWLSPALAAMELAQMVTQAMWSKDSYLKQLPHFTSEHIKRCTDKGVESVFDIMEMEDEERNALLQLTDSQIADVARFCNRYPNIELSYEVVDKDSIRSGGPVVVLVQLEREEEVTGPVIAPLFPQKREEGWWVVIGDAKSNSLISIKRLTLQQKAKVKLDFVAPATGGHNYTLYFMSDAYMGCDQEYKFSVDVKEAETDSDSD

B1: PSPC1 (Paraspeckle component 1) (protein, UniProt Q8R326 1-523)
chain: MMLRGNLKQVRIEKNPARLRALESAAGESEPVAAAAMALTLAGEQAPPPAPSEEHPDEELGFTIDIKSFLKPGEKTYTQRCRLFVGNLPTDITEEDFKRLFERYGEPSEVFINRDRGFGFIRLESRTLAEIAKAELDGTILKSRPLRIRFATHGAALTVKNLSPVVSNELLEQAFSQFGPVEKAVVVVDDRGRATGKGFVEFAAKPPARKALERCGDGAFLLTTTPRPVIVEPMEQFDDEDGLPEKLMQKTQQYHKEREQPPRFAQPGTFEFEYASRWKALDEMEKQQREQVDRNIREAKEKLEAEMEAARHEHQLMLMRQDLMRRQEELRRLEELRNQELQKRKQIQLRHEEEHRRREEEMIRHREQEELRRQQEGGFKPNYMENREQEMRMGDMGPRGAINMGDAFSPAPAGTQGPPPMMGMNMNNRGTIPGPPMGPGPAMGPEGAANMGTPMIPDNGAVHNDRFPQGPPSQMGSPMGNRTGSETPQAPMSGVGPVSGGPGGFGRGSQGGNFEGPNKRRRY
B2: SFPQ (Splicing factor, proline- and glutamine-rich) (protein, UniProt Q8VIJ6 1-699)
chain: MSRDRFRSRGGGGGGFHRRGGGGGRGGLHDFRSPPPGMGLNQNRGPMGPGPGGPKPPLPPPPPHQQQQQPPPQQPPPQQPPPHQQPPPHQPPHQQPPPPPQESKPVVPQGPGSAPGVSSAPPPAVSAPPANPPTTGAPPGPGPTPTPPPAVPSTAPGPPPPSTPSSGVSTTPPQTGGPPPPPAGGAGPGPKPGPGPGGPKGGKMPGGPKPGGGPGMGAPGGHPKPPHRGGGEPRGGRQHHAPYHQQHHQGPPPGGPGPRTEEKISDSEGFKANLSLLRRPGEKTYTQRCRLFVGNLPADITEDEFKRLFAKYGEPGEVFINKGKGFGFIKLESRALAEIAKAELDDTPMRGRQLRVRFATHAAALSVRNLSPYVSNELLEEAFSQFGPIERAVVIVDDRGRSTGKGIVEFASKPAARKAFERCSEGVFLLTTTPRPVIVEPLEQLDDEDGLPEKLAQKNPMYQKERETPPRFAQHGTFEYEYSQRWKSLDEMEKQQREQVEKNMKDAKDKLESEMEDAYHEHQANLLRQDLMRRQEELRRMEELHSQEMQKRKEMQLRQEEERRRREEEMMIRQREMEEQMRRQREESYSRMGYMDPRERDMRMGGGGTMNMGDPYGSGGQKFPPLGGGGGIGYEANPGVPPATMSGSMMGSDMRTERFGQGGAGPVGGQGPRGMGPGTPAGYGRGREEYEGPNKKPRF
B3: TRIM33 (Tripartite motif-containing 33) (protein, UniProt Q99PP7 1-1142)
chain: MAENKGGGEAESGGGGSGSAPVTAGAAGPTAQEAEPPLAAVLVEEEEEEGGRAGAEGGAAGPDDGGVAAASSSSAPAASVPAASVGSAVPGGAASTPAPAAAPAPAPAPAPAPAPAPAPAPAPGSSSGPPLGPPASLLDTCAVCQQSLQSRREAEPKLLPCLHSFCLRCLPEPERQLSVPIPGGSNGDVQQVGVIRCPVCRQECRQIDLVDNYFVKDTSEAPSSSDEKSEQVCTSCEDNASAVGFCVECGEWLCKTCIEAHQRVKFTKDHLIRKKEDVSESVGTSGQRPVFCPVHKQEQLKLFCETCDRLTCRDCQLLEHKEHRYQFLEEAFQNQKGAIENLLAKLLEKKNYVHFAATQVQNRIKEVNETNKRVEQEIKVAIFTLINEINKKGKSLLQQLENVTKERQMKLLQQQNDITGLSRQVKHVMNFTNWAIASGSSTALLYSKRLITFQLRHILKARCDPVPAANGAIRFHCDPTFWAKNVVNLGNLVIESKPAPGYTPNVVVGQVPPGTNHISKTPGQINLAQLRLQHMQQQVYAQKHQQLQQMRLQQPPAPIPTTTATTQQHPRQAAPQMLQQQPPRLISVQTMQRGNMNCGAFQAHQMRLAQNAARIPGIPRHSAPQYSMMQPHLQRQHSNPGHAGPFPVVSAHNPINPTSPTTATMANANRGPTSPSVTAIELIPSVTNPENLPSLPDIPPIQLEDAGSSSLDNLLSRYISGSHLPPQPTSTMNPSPGPSALSPGSSGLSNSHTPVRPPSTSSTGSRGSCGSSGRTAEKSAHSFKSDQVKVKQEPGTEEEICSFSGAVKQEKTEDGRRSACMLSSPESSLTPPLSTNLHLESELDTLTGLENHVKTEPTDISESCKQSGLSNLVNGKSPIRNLMHRSARIGGDGNSKDDDPNEDWCAVCQNGGDLLCCEKCPKVFHLTCHVPTLLSFPSGDWICTFCRDIGKPEVEYDCDNMQHSKKGKTAQGLSPVDQRKCERLLLYLYCHELSIEFQEPVPVSIPNYYKIIKKPMDLSTVKKKLQKKHSQHYQIPDDFVADVRLIFKNCERFNEMMKVVQVYADTQEINLKGDSEVAKAGKAVALYFEDKLSEIYSDRTFTPLPEFEQDEDDGEVTEDSDEDFIQPRRKRLKSDERPVHIK

biological target: DICER (mouse (endogenous in testis)) (UniProt Q8R418); assay: affinity purification with mass spectrometry; DICER immunoprecipitated from 17–18 dpp mouse testes (Dynabeads Protein G); beads washed with Tris buffer pH 8.0, digested with trypsin, LC–ESI-MS/MS

binding, binds:
KHDRBS1/SAM68 (KH domain-containing, RNA-binding, signal transduction-associated protein 1) (from UniProt Q60749 1-443)
snRNP200 (U5 small nuclear ribonucleoprotein 200 kDa helicase) (from UniProt Q6P4T2 1-2136)
B1
B2
B3
